Laboratory results as given in patent US20200222347A1, “ANTIMICROBIALS AND METHODS OF USE THEREOF” (priority 2013, published 2020).
At least one structure is not confirmed: it was looked up by name or label, or the drawing left a doubt.

How the values were obtained:
[1] = system: C. perfringens; format: cell-based; details: 100 mM, carrier water
[2] = system: S. aureus 33591 (MRSA); assay: Kirby-Bauer disc diffusion antimicrobial susceptibility; format: cell-based, Staphylococcus aureus; details: 100 mM, carrier water; 18-24 hours for aerobes

Structure (SMILES)	effectiveness against C. perfringens (growth inhibition) [1]	effectiveness against S. aureus 33591 (MRSA) [2]
Oc1cc(O)c2cc(O)c(-c3cc(O)c(O)c(O)c3)[o+]c2c1 [Delphinidin, delphinidin]	limited growth	limited growth
Oc1ccc(-c2[o+]c3cc(O)cc(O)c3cc2O)cc1 [Pelargonidin, pelargonidin]	limited growth	limited growth
